Experimental data taken from the supplement of paper PMC10849652.
This is one part of the list.

Chains of the proteins cited; added tags and fusions are not shown. Lines headed by an entry give the natural chain unless they say otherwise; changes in a name come on top.
UniProt Q6P996: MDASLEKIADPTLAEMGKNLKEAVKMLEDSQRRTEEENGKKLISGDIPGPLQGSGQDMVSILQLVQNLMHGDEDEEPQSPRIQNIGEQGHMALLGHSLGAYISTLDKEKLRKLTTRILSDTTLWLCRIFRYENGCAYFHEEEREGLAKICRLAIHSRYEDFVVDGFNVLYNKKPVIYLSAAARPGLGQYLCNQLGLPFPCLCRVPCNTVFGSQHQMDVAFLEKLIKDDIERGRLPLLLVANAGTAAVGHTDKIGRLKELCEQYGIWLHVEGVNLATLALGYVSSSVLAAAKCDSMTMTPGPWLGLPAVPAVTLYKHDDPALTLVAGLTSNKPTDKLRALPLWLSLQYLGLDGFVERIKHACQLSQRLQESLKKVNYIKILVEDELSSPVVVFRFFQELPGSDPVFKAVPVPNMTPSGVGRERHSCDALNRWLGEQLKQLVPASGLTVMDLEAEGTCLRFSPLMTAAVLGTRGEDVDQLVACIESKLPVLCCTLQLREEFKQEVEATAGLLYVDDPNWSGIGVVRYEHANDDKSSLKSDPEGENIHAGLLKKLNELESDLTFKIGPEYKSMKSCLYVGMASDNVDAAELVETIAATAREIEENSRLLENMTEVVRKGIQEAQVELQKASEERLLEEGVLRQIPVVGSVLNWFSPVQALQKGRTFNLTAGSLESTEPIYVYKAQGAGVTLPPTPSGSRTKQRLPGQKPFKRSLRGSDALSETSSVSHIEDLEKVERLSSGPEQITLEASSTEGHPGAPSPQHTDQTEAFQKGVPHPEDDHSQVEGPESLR
UniProt Q9UHG3: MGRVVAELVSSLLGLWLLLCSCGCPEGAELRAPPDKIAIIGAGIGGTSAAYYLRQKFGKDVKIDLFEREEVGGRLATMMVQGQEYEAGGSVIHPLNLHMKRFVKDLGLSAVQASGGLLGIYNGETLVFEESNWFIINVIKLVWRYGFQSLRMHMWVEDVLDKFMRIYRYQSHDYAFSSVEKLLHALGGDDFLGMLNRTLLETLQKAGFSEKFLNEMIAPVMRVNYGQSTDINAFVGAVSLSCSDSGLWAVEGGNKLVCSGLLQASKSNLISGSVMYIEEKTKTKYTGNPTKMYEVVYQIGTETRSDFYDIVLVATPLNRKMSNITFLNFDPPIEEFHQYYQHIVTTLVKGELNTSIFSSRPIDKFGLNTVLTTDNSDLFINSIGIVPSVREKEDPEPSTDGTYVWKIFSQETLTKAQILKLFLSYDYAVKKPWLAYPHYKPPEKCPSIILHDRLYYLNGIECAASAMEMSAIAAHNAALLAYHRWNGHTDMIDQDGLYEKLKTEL
UniProt Q86TB9: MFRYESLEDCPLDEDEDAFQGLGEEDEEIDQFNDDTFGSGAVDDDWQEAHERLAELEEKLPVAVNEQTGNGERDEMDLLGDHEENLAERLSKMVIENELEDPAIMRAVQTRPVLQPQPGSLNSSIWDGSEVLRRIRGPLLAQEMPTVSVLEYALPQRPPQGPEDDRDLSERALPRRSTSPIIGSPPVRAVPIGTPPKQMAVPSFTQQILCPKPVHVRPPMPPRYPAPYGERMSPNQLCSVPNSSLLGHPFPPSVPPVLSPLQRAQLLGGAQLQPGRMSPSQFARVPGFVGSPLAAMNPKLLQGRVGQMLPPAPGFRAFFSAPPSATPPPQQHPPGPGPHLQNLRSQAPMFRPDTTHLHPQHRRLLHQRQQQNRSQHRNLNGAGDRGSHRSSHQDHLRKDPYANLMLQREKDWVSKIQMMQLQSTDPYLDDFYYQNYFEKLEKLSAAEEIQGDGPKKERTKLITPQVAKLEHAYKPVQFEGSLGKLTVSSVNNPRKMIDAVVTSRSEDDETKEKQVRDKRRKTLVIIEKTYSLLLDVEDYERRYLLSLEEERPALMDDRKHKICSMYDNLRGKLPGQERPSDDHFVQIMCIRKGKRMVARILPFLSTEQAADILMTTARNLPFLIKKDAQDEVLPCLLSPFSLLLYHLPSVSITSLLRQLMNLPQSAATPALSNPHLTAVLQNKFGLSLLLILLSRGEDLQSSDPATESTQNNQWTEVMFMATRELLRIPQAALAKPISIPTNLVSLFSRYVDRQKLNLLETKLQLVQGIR
UniProt Q5EBL8: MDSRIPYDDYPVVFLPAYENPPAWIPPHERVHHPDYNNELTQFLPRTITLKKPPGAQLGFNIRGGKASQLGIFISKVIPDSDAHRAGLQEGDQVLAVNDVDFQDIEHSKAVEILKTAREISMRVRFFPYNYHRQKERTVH
UniProt P61457: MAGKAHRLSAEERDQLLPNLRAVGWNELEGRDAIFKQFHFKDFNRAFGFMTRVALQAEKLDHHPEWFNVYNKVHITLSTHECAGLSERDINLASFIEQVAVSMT
UniProt P13667: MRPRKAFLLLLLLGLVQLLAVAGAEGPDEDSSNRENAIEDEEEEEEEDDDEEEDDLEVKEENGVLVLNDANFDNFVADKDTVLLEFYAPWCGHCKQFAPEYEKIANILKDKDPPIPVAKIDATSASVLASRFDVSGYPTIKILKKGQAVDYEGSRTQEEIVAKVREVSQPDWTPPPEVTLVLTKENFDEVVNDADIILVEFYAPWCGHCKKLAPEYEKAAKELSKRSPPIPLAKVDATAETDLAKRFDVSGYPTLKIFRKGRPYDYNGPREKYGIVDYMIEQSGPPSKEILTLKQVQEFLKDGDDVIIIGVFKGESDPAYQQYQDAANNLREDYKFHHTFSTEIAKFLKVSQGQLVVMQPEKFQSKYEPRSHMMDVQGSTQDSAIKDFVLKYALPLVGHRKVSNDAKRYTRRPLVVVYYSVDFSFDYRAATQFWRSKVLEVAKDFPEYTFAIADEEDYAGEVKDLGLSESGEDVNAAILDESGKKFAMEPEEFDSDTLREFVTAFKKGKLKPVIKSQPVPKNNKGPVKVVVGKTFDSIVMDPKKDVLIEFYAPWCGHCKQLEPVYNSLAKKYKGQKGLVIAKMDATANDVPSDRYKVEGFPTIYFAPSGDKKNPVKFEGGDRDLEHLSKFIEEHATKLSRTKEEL
UniProt Q96HC4: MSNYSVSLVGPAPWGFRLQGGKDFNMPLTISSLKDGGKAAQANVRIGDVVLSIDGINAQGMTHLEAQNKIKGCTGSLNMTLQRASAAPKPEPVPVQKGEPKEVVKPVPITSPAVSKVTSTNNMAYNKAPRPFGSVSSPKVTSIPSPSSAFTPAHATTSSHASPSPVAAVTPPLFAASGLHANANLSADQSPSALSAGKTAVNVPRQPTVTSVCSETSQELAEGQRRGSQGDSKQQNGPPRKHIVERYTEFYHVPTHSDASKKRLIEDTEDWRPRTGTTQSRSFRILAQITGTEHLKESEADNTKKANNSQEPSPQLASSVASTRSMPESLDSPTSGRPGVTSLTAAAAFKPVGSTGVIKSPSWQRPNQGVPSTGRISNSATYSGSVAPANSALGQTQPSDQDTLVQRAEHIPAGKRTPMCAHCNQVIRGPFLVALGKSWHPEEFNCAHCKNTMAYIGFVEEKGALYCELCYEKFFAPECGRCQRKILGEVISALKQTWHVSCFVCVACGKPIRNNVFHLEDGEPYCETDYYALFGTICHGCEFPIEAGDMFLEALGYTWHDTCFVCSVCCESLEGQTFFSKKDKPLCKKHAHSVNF
UniProt Q14554: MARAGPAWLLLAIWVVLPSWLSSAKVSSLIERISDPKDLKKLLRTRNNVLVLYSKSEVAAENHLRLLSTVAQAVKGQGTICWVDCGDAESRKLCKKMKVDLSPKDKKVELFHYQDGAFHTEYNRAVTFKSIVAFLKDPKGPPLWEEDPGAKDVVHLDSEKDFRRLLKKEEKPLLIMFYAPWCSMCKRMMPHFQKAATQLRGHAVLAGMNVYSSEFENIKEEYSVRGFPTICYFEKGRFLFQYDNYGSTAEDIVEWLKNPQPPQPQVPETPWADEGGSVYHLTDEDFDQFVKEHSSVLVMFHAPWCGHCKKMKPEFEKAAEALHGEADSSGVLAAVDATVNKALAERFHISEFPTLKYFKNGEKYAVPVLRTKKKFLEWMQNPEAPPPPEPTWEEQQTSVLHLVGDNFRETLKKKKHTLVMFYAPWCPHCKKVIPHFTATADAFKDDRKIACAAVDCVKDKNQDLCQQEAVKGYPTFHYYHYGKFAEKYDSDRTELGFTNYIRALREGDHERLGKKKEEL
UniProt Q16822, whole entry, looked up: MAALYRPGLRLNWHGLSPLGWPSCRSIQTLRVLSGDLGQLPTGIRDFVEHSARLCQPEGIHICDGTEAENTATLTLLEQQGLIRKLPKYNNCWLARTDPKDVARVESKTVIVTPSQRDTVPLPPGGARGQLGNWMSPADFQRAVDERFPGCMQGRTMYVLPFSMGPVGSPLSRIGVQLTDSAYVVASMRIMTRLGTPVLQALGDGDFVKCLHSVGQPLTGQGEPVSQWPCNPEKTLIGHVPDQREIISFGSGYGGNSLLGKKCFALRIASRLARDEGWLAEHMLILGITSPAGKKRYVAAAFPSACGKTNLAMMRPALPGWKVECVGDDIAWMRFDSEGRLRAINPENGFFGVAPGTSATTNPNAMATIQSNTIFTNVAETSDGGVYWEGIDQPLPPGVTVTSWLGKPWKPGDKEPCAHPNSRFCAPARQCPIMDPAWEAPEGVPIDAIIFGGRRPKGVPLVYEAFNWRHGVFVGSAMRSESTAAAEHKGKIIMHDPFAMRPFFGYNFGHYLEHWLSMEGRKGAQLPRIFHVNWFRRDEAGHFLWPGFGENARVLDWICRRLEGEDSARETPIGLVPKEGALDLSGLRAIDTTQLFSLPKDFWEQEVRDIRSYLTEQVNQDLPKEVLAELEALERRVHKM
UniProt O15530: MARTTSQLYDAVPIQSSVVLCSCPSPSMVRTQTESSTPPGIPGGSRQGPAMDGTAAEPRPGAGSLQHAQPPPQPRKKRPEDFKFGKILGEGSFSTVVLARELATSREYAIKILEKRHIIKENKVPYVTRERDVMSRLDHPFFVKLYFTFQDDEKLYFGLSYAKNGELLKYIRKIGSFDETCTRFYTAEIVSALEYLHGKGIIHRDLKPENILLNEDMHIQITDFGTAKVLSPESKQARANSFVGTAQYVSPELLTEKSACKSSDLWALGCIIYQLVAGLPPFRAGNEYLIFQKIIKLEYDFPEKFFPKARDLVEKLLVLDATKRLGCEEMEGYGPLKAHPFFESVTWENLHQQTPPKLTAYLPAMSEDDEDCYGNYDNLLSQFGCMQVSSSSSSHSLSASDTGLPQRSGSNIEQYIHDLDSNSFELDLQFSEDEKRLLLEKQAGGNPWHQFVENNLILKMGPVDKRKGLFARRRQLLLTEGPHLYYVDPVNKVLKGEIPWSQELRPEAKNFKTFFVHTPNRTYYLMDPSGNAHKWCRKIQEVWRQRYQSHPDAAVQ
UniProt Q9UKL6: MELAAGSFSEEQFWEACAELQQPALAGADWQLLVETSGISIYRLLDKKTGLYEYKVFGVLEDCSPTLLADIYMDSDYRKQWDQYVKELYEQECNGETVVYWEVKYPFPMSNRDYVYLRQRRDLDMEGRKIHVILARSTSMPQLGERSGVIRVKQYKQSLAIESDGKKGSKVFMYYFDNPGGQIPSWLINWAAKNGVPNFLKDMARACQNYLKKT
UniProt Q5JVF3: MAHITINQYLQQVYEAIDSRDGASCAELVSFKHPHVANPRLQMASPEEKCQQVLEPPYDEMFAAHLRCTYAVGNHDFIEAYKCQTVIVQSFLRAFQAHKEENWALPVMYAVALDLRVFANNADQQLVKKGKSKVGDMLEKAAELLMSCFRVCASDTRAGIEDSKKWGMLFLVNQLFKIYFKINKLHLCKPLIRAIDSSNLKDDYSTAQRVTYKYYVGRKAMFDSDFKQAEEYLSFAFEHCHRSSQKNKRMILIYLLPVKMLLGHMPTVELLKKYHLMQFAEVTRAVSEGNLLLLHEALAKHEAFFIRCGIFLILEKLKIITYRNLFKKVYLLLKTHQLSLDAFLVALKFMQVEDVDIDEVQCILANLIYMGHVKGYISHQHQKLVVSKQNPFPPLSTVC
UniProt Q9H4Z3: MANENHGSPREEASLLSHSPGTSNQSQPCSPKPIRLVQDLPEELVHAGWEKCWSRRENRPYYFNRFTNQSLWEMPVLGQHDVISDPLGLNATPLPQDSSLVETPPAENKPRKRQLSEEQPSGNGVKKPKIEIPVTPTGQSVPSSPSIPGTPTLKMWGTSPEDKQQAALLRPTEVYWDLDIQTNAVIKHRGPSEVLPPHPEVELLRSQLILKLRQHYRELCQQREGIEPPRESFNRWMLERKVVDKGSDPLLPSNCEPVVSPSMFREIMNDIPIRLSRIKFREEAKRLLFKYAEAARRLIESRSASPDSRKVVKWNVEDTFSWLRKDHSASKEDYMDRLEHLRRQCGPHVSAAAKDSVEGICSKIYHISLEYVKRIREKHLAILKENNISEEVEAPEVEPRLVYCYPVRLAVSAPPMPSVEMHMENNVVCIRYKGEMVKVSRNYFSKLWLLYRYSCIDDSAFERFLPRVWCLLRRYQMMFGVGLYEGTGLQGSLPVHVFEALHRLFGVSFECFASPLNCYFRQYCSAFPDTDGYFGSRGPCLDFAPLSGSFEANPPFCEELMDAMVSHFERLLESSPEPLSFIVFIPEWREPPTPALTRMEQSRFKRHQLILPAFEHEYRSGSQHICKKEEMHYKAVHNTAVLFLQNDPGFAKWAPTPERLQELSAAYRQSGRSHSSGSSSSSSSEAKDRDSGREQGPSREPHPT

What was measured:
Test in all cases: log2 fold change, soluble protein after heating vs DMSO (PISA); higher = thermal stabilisation; K562 lysate, 10 uM; active = over 0.2 and 3.5 SD of the protein, either way, in both replicates (recomputed)
nilotinib = compound: Cc1cn(-c2cc(NC(=O)c3ccc(C)c(Nc4nccc(-c5cccnc5)n4)c3)cc(C(F)(F)F)c2)cn1 [nilotinib]
How it was run: (§1)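 K562 pellets were dounce-homogenised in PBS pH 7.4 with 1 mM MgCl2, and the crude extract at 1 mg/mL protein was treated with 10 μM compound for 30 min. Aliquots were heated for 3 min across 48°C-58°C, pooled, and brought to 0.5% NP-40 at 4°C; soluble protein was the supernatant after 21,000xg for 90 min. Soluble protein was quantified by TMTpro 16plex LC-MS/MS with channel sums equalised, and reported as log2 fold change in thermal stability against DMSO controls, with values from duplicates.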

[1] = compound: Cc1nc(Nc2n[nH]c3c2CN(C(=O)N[C@H](CN(C)C)c2ccccc2)C3(C)C)c2sccc2n1
How it was run: as §1

dasatinib = compound: Cc1nc(Nc2ncc(C(=O)Nc3c(C)cccc3Cl)s2)cc(N2CCN(CCO)CC2)n1 [dasatinib]
How it was run: as §1

[2] = compound: Cc1ncc(-c2ccnc(Nc3ccc(S(C)(=O)=O)cc3)n2)n1C(C)C
How it was run: as §1

[3] = compound: Cn1cc(-c2ccc3c(c2)CCN3C(=O)Cc2cccc(C(F)(F)F)c2)c2c(N)ncnc21
How it was run: as §1

quisinostat = compound: Cn1cc(CNCC2CCN(c3ncc(C(=O)NO)cn3)CC2)c2ccccc21 [quisinostat]
How it was run: as §1

tipifarnib = compound: Cn1cncc1[C@@](N)(c1ccc(Cl)cc1)c1ccc2c(c1)c(-c1cccc(Cl)c1)cc(=O)n2C [tipifarnib]
How it was run: as §1

[4] = compound: NC(=O)Nc1cc(-c2cccc(F)c2)sc1C(=O)N[C@H]1CCCNC1
How it was run: as §1

[5] = compound: NC(=O)c1cnc(N[C@@H]2CCCC[C@@H]2N)nc1Nc1cccc(-n2nccn2)c1
How it was run: as §1

[6] = compound: NC1(c2ccc(-c3nc4ccn5c(=O)[nH]nc5c4cc3-c3ccccc3)cc2)CCC1
How it was run: as §1

[7] = compound: NCC(=O)Nc1ccc(-n2nc(C(F)(F)F)cc2-c2ccc3c(ccc4ccccc43)c2)cc1
How it was run: as §1

vorinostat = compound: O=C(CCCCCCC(=O)Nc1ccccc1)NO [vorinostat]
How it was run: as §1

silmitasertib = compound: O=C(O)c1ccc2c(c1)nc(Nc1cccc(Cl)c1)c1ccncc12 [silmitasertib]
How it was run: as §1

[8] = compound: O=C1NC(=O)C(c2cnc3ccccn23)=C1c1cn2c3c(cc(F)cc13)CN(C(=O)N1CCCCC1)CC2
How it was run: as §1

entospletinib = compound: c1cn2cc(-c3ccc4cn[nH]c4c3)nc(Nc3ccc(N4CCOCC4)cc3)c2n1 [entospletinib]
How it was run: as §1

Measured: log2 fold change

PDXDC1 (UniProt Q6P996)
active: vorinostat -0.233
inactive: nilotinib 0.058 | [1] 0.064 | dasatinib -0.098 | [2] -0.024 | [3] 0.022 | quisinostat -0.035 | tipifarnib -0.074 | [4] 0.019 | [5] 0.042 | [6] 0.012 | [7] -0.041 | silmitasertib 0.038 | [8] 0.018 | entospletinib -0.019

PCYOX1 (UniProt Q9UHG3)
inactive: nilotinib 0.075 | [1] 0.044 | dasatinib 0.111 | [2] -0.031 | [3] -0.123 | quisinostat 0.006 | tipifarnib -0.025 | [4] -0.002 | [5] -0.01 | [6] 0.015 | [7] -0.008 | vorinostat 0.144 | silmitasertib -0.04 | [8] -0.03 | entospletinib -0.052

PATL1 (UniProt Q86TB9)
inactive: nilotinib 0.009 | [1] 0.019 | dasatinib -0.047 | [2] 0.006 | [3] -0.044 | quisinostat 0.005 | tipifarnib -0.034 | [4] 0.071 | [5] -0.006 | [6] -0.025 | [7] -0.016 | vorinostat 0.075 | silmitasertib -0.011 | [8] 0.053 | entospletinib -0.019

PDZD11 isoform 2 (UniProt Q5EBL8)
inactive: nilotinib -0.01 | [1] -0.053 | dasatinib 0.003 | [2] 0.037 | [3] -0.055 | quisinostat 0.01 | tipifarnib 0.065 | [4] 0.028 | [5] 0.07 | [6] 0.015 | [7] -0.029 | vorinostat 0.069 | silmitasertib -0.109 | [8] -0.026 | entospletinib -0.048

PDCD6IP (UniProt Q8WUM4)
inactive: nilotinib 0.059 | [1] -0.045 | dasatinib -0.023 | [2] -0.006 | [3] 0.049 | quisinostat 0.001 | tipifarnib 0.06 | [4] 0 | [5] -0.058 | [6] -0.032 | [7] 0.065 | silmitasertib -0.005 | [8] 0.009 | entospletinib -0.009
active: vorinostat -0.332

PCBD1 (UniProt P61457)
inactive: nilotinib -0.01 | [1] -0.003 | dasatinib -0.002 | [2] -0.078 | [3] -0.068 | quisinostat -0.13 | tipifarnib -0.007 | [4] -0.013 | [5] -0.004 | [6] -0.013 | [7] 0.033 | vorinostat 0.133 | silmitasertib -0.012 | [8] -0.036 | entospletinib -0.01

PC (UniProt P11498)
inactive: nilotinib 0.037 | [1] -0.069 | dasatinib -0.028 | [2] -0.004 | [3] 0.015 | quisinostat 0.013 | tipifarnib -0.012 | [4] 0.037 | [5] 0.044 | [6] -0.008 | [7] -0.024 | vorinostat -0.152 | silmitasertib 0.027 | [8] -0.026 | entospletinib -0.012

PDIA4 (UniProt P13667)
inactive: nilotinib 0.008 | [1] -0.006 | dasatinib 0.006 | [2] 0.014 | [3] 0.004 | quisinostat 0.154 | tipifarnib 0.029 | [4] -0.004 | [5] -0.02 | [6] 0.008 | [7] 0.001 | vorinostat 0.119 | silmitasertib -0.011 | [8] 0.021 | entospletinib 0.004

PDLIM5 (UniProt Q96HC4)
inactive: nilotinib 0.023 | [1] 0.003 | dasatinib 0.009 | [2] -0.006 | [3] -0.023 | quisinostat 0.016 | tipifarnib 0.001 | [4] -0.023 | [5] -0.024 | [6] -0.01 | [7] -0.008 | vorinostat 0.082 | silmitasertib -0.046 | [8] 0.004 | entospletinib -0.018

PDIA5 (UniProt Q14554)
inactive: nilotinib 0.03 | [1] -0.001 | dasatinib 0.017 | [2] -0.009 | [3] -0.008 | quisinostat -0.018 | tipifarnib -0.023 | [4] 0.01 | [5] -0.019 | [6] -0.035 | [7] -0.009 | vorinostat 0.086 | silmitasertib -0.015 | [8] 0.017 | entospletinib -0.009

PCK2 (UniProt Q16822)
inactive: nilotinib 0.035 | [1] -0.016 | dasatinib -0.037 | [2] 0.027 | [3] 0.023 | quisinostat 0.021 | tipifarnib 0.029 | [4] -0.022 | [5] 0.022 | [6] 0.052 | [7] 0.013 | vorinostat -0.127 | silmitasertib -0.048 | [8] -0.059 | entospletinib 0.015

2 records picked at random from those above, as already listed:
PC (UniProt P11498)
inactive: nilotinib 0.037 | [1] -0.069 | dasatinib -0.028 | [2] -0.004 | [3] 0.015 | quisinostat 0.013 | tipifarnib -0.012 | [4] 0.037 | [5] 0.044 | [6] -0.008 | [7] -0.024 | vorinostat -0.152 | silmitasertib 0.027 | [8] -0.026 | entospletinib -0.012

PCYOX1 (UniProt Q9UHG3)
inactive: nilotinib 0.075 | [1] 0.044 | dasatinib 0.111 | [2] -0.031 | [3] -0.123 | quisinostat 0.006 | tipifarnib -0.025 | [4] -0.002 | [5] -0.01 | [6] 0.015 | [7] -0.008 | vorinostat 0.144 | silmitasertib -0.04 | [8] -0.03 | entospletinib -0.052

The list continues:

PBDC1 (UniProt Q9BVG4)
inactive: nilotinib 0.072 | [1] 0.008 | dasatinib 0.021 | [2] 0.019 | [3] 0 | quisinostat 0.043 | tipifarnib 0.023 | [4] 0.013 | [5] 0.001 | [6] 0 | [7] 0 | vorinostat 0.122 | silmitasertib -0.013 | [8] -0.018 | entospletinib -0.026

PDPK1 (UniProt O15530)
inactive: nilotinib -0.093 | [1] 0.314 | dasatinib -0.014 | [2] -0.093 | [3] 0 | quisinostat -0.094 | tipifarnib -0.011 | [5] 0.019 | [6] -0.059 | [7] -0.056 | vorinostat -0.246 | silmitasertib 0.09 | [8] 0.004 | entospletinib -0.007
active: [4] 0.619

PCBP2 isoform 8 (UniProt Q15366)
inactive: nilotinib 0.059 | [1] 0.069 | dasatinib -0.057 | [2] 0.04 | [3] 0.003 | quisinostat 0.133 | tipifarnib 0.015 | [4] 0.055 | [5] -0.091 | [6] -0.049 | [7] -0.06 | silmitasertib -0.037 | [8] 0.054 | entospletinib -0.091
active: vorinostat -0.489

PCF11 (UniProt O94913)
active: vorinostat -0.339
inactive: nilotinib -0.003 | [1] -0.001 | dasatinib -0.042 | [2] 0.023 | [3] -0.017 | quisinostat -0.004 | tipifarnib -0.029 | [4] 0.019 | [5] -0.013 | [6] -0.012 | [7] 0.043 | silmitasertib -0.023 | [8] -0.001 | entospletinib 0.016

PGAM1 (UniProt P18669)
inactive: nilotinib 0.028 | [1] 0.02 | dasatinib 0.02 | [2] -0.009 | [3] -0.066 | quisinostat -0.004 | tipifarnib 0.021 | [4] -0.021 | [5] -0.065 | [6] 0.015 | [7] -0.019 | vorinostat 0.114 | silmitasertib -0.019 | [8] -0.006 | entospletinib -0.006

PBX2 (UniProt P40425)
inactive: nilotinib -0.014 | [1] -0.009 | dasatinib -0.023 | [2] -0.015 | [3] 0.001 | quisinostat -0.006 | tipifarnib 0.012 | [4] -0.038 | [5] 0.065 | [6] -0.006 | [7] 0.007 | vorinostat -0.096 | silmitasertib 0.014 | [8] -0.014 | entospletinib 0.019

PCTP (UniProt Q9UKL6)
inactive: nilotinib 0.017 | [1] 0.021 | dasatinib -0.03 | [2] 0.022 | [3] -0.021 | quisinostat -0.018 | tipifarnib -0.097 | [4] 0.009 | [5] 0.029 | [6] 0 | [7] 0.003 | vorinostat 0.111 | silmitasertib 0.019 | [8] -0.043 | entospletinib 0

PCID2 (UniProt Q5JVF3)
inactive: nilotinib -0.09 | [1] 0.021 | dasatinib -0.059 | [2] 0.059 | [3] -0.022 | quisinostat -0.049 | tipifarnib -0.067 | [4] 0.012 | [5] 0.032 | [6] 0.013 | [7] 0.003 | vorinostat -0.235 | silmitasertib 0.011 | [8] -0.009 | entospletinib -0.023

PFDN4 (UniProt Q9NQP4)
inactive: nilotinib 0 | [1] 0.009 | dasatinib 0.055 | [2] -0.018 | [3] -0.186 | quisinostat 0.017 | tipifarnib 0.042 | [4] -0.01 | [5] 0.042 | [6] 0 | [7] 0.011 | vorinostat 0.105 | silmitasertib 0.005 | [8] 0.03 | entospletinib -0.037

PCIF1 (UniProt Q9H4Z3)
active: [3] -0.439
inactive: nilotinib 0.018 | [1] -0.089 | dasatinib 0.118 | [2] 0.011 | quisinostat 0.019 | tipifarnib 0.015 | [4] -0.016 | [5] -0.006 | [6] 0.022 | [7] -0.018 | vorinostat -0.011 | silmitasertib 0.112 | [8] 0.036 | entospletinib 0.085
